Assay results as given in the supplement of paper PMC10849652.
The list shows a part of the results.

Protein sequences, listed by entry. Tags and fused reporters are not part of them. Lines headed by an entry give the natural chain unless they say otherwise; changes in a name come on top.
UniProt Q8IW41: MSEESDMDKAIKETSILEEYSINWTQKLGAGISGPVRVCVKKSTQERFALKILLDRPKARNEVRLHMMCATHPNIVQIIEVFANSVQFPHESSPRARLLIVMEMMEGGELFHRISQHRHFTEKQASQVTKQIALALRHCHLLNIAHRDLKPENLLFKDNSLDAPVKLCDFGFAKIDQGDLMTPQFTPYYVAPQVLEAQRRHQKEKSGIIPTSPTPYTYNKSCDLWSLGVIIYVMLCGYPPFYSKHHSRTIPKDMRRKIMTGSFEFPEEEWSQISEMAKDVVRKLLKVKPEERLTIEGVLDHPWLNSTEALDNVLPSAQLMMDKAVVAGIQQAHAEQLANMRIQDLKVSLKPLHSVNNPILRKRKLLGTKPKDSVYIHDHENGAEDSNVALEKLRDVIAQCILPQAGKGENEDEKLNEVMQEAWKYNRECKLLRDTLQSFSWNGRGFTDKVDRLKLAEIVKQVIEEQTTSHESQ
UniProt Q9UPY8, whole entry, looked up: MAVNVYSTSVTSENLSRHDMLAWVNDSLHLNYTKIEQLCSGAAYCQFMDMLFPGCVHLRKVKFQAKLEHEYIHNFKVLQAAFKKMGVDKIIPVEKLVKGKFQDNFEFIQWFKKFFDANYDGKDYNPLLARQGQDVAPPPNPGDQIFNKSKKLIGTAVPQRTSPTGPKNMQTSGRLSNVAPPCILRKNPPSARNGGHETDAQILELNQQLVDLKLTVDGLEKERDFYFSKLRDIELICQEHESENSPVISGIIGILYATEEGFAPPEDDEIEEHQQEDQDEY
UniProt Q96QZ7: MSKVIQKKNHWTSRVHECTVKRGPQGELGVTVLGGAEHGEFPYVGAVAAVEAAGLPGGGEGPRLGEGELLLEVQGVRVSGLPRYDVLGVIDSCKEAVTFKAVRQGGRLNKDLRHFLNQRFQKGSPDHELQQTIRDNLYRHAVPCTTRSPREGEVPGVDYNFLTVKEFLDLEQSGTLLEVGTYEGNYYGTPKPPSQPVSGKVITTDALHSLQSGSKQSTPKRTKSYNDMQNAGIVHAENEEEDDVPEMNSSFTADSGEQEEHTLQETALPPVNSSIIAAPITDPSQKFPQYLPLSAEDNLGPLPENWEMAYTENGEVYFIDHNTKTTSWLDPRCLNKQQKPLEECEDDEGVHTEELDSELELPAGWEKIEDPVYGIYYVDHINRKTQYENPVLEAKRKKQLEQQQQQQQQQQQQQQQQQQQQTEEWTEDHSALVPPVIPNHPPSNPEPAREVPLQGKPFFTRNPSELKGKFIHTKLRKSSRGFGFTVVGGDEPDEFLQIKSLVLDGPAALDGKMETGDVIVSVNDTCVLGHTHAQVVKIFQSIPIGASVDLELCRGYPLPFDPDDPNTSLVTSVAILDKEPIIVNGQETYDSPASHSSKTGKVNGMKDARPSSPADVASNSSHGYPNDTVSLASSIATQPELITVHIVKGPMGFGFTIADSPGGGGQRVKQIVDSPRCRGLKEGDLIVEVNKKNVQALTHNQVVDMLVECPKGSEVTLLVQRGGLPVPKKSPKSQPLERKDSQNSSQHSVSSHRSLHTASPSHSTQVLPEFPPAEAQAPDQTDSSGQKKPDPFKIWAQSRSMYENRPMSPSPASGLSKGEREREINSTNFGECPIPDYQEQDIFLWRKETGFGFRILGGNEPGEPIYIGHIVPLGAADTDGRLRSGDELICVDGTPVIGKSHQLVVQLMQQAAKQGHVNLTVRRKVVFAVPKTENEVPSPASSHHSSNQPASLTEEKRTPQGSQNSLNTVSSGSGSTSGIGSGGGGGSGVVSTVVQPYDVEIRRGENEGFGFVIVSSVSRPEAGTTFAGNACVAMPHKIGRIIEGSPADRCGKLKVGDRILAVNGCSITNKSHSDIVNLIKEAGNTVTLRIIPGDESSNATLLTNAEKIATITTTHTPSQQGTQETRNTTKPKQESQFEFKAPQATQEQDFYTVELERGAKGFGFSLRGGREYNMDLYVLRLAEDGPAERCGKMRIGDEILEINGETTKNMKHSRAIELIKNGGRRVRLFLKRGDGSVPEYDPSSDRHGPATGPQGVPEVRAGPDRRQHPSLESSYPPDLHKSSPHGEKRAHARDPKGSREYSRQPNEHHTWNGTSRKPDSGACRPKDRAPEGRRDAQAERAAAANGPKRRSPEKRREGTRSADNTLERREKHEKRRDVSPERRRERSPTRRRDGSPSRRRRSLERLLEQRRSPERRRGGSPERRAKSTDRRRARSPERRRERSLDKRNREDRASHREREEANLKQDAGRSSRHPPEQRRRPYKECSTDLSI
UniProt P12980: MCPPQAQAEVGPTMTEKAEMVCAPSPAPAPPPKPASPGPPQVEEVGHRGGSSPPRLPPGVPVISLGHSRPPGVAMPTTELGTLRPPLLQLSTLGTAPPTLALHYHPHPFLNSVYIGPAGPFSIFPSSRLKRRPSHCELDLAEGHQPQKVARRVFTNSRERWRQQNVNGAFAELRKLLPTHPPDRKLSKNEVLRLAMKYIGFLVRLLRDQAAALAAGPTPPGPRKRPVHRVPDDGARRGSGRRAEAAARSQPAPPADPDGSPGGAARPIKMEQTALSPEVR
UniProt Q9NQ29: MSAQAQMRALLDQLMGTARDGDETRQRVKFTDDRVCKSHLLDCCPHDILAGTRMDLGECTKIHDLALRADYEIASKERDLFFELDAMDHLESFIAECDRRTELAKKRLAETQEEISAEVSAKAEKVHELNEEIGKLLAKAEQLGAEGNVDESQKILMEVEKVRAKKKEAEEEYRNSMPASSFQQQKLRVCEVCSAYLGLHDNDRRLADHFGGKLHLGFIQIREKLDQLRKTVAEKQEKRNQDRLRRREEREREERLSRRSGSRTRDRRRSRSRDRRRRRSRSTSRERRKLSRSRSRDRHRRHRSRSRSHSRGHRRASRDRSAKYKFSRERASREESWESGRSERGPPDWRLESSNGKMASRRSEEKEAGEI
UniProt Q9Y6R4: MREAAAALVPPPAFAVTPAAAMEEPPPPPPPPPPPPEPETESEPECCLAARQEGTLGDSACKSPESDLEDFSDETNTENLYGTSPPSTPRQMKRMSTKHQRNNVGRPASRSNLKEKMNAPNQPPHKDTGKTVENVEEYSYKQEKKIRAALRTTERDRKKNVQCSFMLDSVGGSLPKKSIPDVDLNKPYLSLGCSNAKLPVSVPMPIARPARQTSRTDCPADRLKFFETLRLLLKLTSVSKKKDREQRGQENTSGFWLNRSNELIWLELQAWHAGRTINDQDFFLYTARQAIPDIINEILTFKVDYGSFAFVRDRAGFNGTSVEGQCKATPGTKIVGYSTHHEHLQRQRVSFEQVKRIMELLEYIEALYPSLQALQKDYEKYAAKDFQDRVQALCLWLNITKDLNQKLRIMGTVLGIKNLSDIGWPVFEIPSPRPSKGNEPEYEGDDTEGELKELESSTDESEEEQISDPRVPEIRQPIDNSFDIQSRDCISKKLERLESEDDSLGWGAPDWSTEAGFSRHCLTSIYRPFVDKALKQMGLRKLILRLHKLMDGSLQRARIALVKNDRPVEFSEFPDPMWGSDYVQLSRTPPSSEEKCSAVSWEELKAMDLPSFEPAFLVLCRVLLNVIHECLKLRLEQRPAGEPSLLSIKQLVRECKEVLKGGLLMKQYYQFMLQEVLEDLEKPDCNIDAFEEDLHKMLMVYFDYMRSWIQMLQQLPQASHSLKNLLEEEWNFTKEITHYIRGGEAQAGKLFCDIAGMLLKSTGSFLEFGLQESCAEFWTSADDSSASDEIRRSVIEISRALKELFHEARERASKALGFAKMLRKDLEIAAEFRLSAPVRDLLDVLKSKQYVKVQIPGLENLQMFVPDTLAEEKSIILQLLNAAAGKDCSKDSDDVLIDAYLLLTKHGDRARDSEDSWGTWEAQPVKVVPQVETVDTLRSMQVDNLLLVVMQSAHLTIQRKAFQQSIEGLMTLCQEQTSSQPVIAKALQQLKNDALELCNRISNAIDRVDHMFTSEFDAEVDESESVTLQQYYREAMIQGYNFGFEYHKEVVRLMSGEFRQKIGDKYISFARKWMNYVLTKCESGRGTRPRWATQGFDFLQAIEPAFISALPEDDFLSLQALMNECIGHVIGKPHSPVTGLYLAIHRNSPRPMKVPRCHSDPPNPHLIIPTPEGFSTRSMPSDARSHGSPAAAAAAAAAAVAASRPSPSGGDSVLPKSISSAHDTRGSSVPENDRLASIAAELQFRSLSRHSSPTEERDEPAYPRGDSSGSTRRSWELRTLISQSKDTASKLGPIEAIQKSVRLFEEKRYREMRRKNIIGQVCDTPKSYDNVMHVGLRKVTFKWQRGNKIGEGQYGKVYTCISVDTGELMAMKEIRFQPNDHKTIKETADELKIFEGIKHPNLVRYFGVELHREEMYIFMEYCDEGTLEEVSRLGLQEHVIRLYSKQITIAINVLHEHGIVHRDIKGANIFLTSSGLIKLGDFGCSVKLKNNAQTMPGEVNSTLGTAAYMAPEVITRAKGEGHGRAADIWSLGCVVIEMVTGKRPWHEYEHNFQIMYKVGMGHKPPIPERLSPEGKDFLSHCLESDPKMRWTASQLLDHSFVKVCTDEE

Key:
Assay in all cases: log2 fold change, soluble protein after heating vs DMSO (PISA); higher = thermal stabilisation; K562 cells, 10 uM, 30 min; active = over 0.2 and 3.5 SD of the protein, either way, in both replicates (recomputed)
[1] = compound: CC[C@@H]1C(=O)N(C)c2cnc(Nc3ccc(C(=O)NC4CCN(C)CC4)cc3OC)nc2N1C1CCCC1
In short: (§1)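 Soluble protein was quantified by TMTpro 16plex LC-MS/MS after channel sums were equalised. It was obtained as the supernatant after 21,000xg for 90 min from pooled aliquots of K562 cells (2×10^6 cells/mL, 10 μM compound, 30 min) heated for 3 min across 48°C-58°C and extracted in PBS with 0.5% NP-40 at 4°C. Thermal stability values are relative to control samples and come from duplicates. They are given as log2 fold changes.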

volasertib = compound: CC[C@@H]1C(=O)N(C)c2cnc(Nc3ccc(C(=O)N[C@H]4CC[C@H](N5CCN(CC6CC6)CC5)CC4)cc3OC)nc2N1C(C)C [volasertib]
In short: as §1

[2] = compound: CC[C@H](C)N1C=C(C2=C(C=C(C=C21)C3=CN=C(C=C3)N4CCNCC4)C(=O)NCC5=C(C=C(NC5=O)C)C)C
In short: as §1

epoxomicin = compound: CC[C@H](C)[C@@H](C(=O)N[C@@H]([C@@H](C)O)C(=O)N[C@@H](CC(C)C)C(=O)[C@]1(CO1)C)NC(=O)[C@H]([C@@H](C)CC)N(C)C(=O)C [epoxomicin]
In short: as §1

[3] = compound: CCn1cc(-c2ccnc3[nH]c(-c4cccc(CN(C)C)c4)cc23)c(-c2ccc(NC(=O)N(C)C)cc2)n1
In short: as §1

[4] = compound: CN(C)CC(=O)Nc1ccc2[nH]c(=O)c3ccccc3c2c1
In short: as §1

[5] = compound: CN1C2=C(C3=C1C(=O)N(N=C3)CC4=CC(=CC=C4)N)SC(=C2)S(=O)C
In short: as §1

[6] = compound: CN1CCC(CNc2ccc3ncc(-c4cccc(OC(F)(F)F)c4)n3n2)CC1
In short: as §1

saracatinib = compound: CN1CCN(CCOc2cc(OC3CCOCC3)c3c(Nc4c(Cl)ccc5c4OCO5)ncnc3c2)CC1 [saracatinib]
In short: as §1

sotrastaurin = compound: CN1CCN(c2nc(C3=C(c4c[nH]c5ccccc45)C(=O)NC3=O)c3ccccc3n2)CC1 [sotrastaurin]
In short: as §1

Tubastatin A = compound: CN1CCc2c(c3ccccc3n2Cc2ccc(C(=O)NO)cc2)C1 [Tubastatin A]
In short: as §1

[7] = compound: CNC(=O)C1=CC=CC=C1NC2=NC(=NC=C2Cl)NC3=C(C=C(C=C3)N4CCOCC4)OC
In short: as §1

defactinib = compound: CNC(=O)c1ccc(Nc2ncc(C(F)(F)F)c(NCc3nccnc3N(C)S(C)(=O)=O)n2)cc1 [defactinib]
In short: as §1

rucaparib = compound: CNCc1ccc(-c2[nH]c3cc(F)cc4c3c2CCNC4=O)cc1 [rucaparib]
In short: as §1

[8] = compound: CNc1nc(-c2ccc3c(N)n[nH]c3c2)cc(N2C[C@@H](C(=O)NC3CCCCC3)CC[C@H]2C)n1
In short: as §1

encorafenib = compound: COC(=O)N[C@@H](C)CNc1nccc(-c2cn(C(C)C)nc2-c2cc(Cl)cc(NS(C)(=O)=O)c2F)n1 [encorafenib]
In short: as §1

[9] = compound: COC(=O)[C@H](CCSC)NC(=O)C1=C(C=C(C=C1)NC[C@H](CS)N)C2=CC=CC=C2
In short: as §1

[10] = compound: CCn1c(C(=O)N(C2CC2)C2CC2)cc2c3c(ncn3C)c(Nc3cc(C)n(C)n3)nc21
In short: as §1

rosiglitazone = compound: CN(CCOC1=CC=C(C=C1)C[C@H]2C(=O)NC(=O)S2)C3=CC=CC=N3 (racemic) [rosiglitazone]
In short: as §1

alvocidib = compound: CN1CC[C@H](c2c(O)cc(O)c3c(=O)cc(-c4ccccc4Cl)oc23)[C@H](O)C1 [alvocidib]
In short: as §1

Measured: log2 fold change

MAPKAPK5 (UniProt Q8IW41)
inactive: [1] 0.009 | volasertib -0.007 | [2] -0.023 | epoxomicin 0.045 | [3] -0.132 | [4] -0.123 | [5] -0.112 | [6] -0.033 | saracatinib 0.008 | sotrastaurin -0.028 | Tubastatin A 0.036 | [7] -0.02 | defactinib -0.032 | rucaparib 0.095 | [8] -0.039 | encorafenib -0.016 | [9] 0

MAP4 (UniProt E7EVA0)
inactive: [1] 0.079 | volasertib 0.246 | [2] 0.036 | epoxomicin -0.113 | [3] 0.068 | [4] -0.021 | [5] 0.131 | [6] 0.152 | saracatinib 0.03 | sotrastaurin -0.015 | Tubastatin A 0.041 | [7] -0.059 | defactinib 0.099 | rucaparib 0.209 | [8] 0.043 | encorafenib 0.017 | [9] 0.032

MAPRE3 (UniProt Q9UPY8)
inactive: [1] -0.105 | volasertib -0.226 | [2] 0.101 | epoxomicin 0.01 | [3] -0.041 | [4] -0.009 | [5] -0.068 | [6] -0.061 | saracatinib -0.029 | sotrastaurin -0.016 | Tubastatin A -0.067 | [7] 0.025 | defactinib -0.031 | rucaparib 0.02 | [8] -0.016 | encorafenib 0.017 | [9] 0.027

MAP2K1 (UniProt Q02750)
inactive: [1] -0.017 | volasertib -0.058 | [2] 0.024 | epoxomicin 0.053 | [3] -0.092 | [4] 0.032 | [5] -0.06 | [6] -0.113 | saracatinib 0.02 | sotrastaurin 0.028 | Tubastatin A -0.018 | [7] -0.053 | defactinib -0.011 | rucaparib -0.049 | [8] -0.005 | encorafenib 0.005 | [9] 0.009

MAPK9 (UniProt P45984)
active: [7] 0.328
inactive: [1] -0.055 | volasertib -0.087 | [2] 0.006 | epoxomicin -0.005 | [3] 0.03 | [4] 0 | [5] -0.038 | [6] -0.071 | saracatinib -0.118 | sotrastaurin 0.046 | Tubastatin A -0.013 | defactinib 0.003 | rucaparib -0.02 | [8] 0 | encorafenib 0.018 | [9] 0.029

MAGI1 (UniProt Q96QZ7)
inactive: [1] 0.041 | volasertib 0.031 | [2] 0.026 | epoxomicin -0.045 | [3] 0.012 | [4] -0.041 | [5] 0.014 | [6] -0.011 | saracatinib -0.013 | sotrastaurin -0.064 | Tubastatin A -0.017 | [7] 0.021 | defactinib -0.007 | rucaparib 0.012 | [8] 0.024 | encorafenib 0.059 | [9] -0.009

LYL1 (UniProt P12980)
inactive: [1] 0.009 | volasertib -0.1 | [2] -0.181 | epoxomicin 0.208 | [10] -0.002 | [4] 0.023 | rosiglitazone 0.07 | sotrastaurin 0.036 | alvocidib 0.046 | Tubastatin A 0.083 | [7] -0.011 | defactinib 0.016 | rucaparib 0.251 | encorafenib 0.151 | [9] -0.202

Two records picked at random from those above:
MAPK9 (UniProt P45984)
active: [7] 0.328
inactive: [1] -0.055 | volasertib -0.087 | [2] 0.006 | epoxomicin -0.005 | [3] 0.03 | [4] 0 | [5] -0.038 | [6] -0.071 | saracatinib -0.118 | sotrastaurin 0.046 | Tubastatin A -0.013 | defactinib 0.003 | rucaparib -0.02 | [8] 0 | encorafenib 0.018 | [9] 0.029

MAP2K1 (UniProt Q02750)
inactive: [1] -0.017 | volasertib -0.058 | [2] 0.024 | epoxomicin 0.053 | [3] -0.092 | [4] 0.032 | [5] -0.06 | [6] -0.113 | saracatinib 0.02 | sotrastaurin 0.028 | Tubastatin A -0.018 | [7] -0.053 | defactinib -0.011 | rucaparib -0.049 | [8] -0.005 | encorafenib 0.005 | [9] 0.009

Next part

LUC7L (UniProt Q9NQ29)
inactive: [1] 0.006 | volasertib -0.005 | [2] 0.005 | epoxomicin -0.052 | [3] 0.01 | [4] -0.043 | [5] 0.108 | [6] 0.052 | saracatinib -0.005 | sotrastaurin 0.056 | Tubastatin A 0.006 | [7] -0.119 | defactinib 0.022 | rucaparib 0.076 | [8] -0.049 | encorafenib 0.039 | [9] 0.022

MAP3K4 isoform 2 (UniProt Q9Y6R4)
active: volasertib 0.398 | [3] -0.519
inactive: [1] 0.141 | [2] -0.013 | epoxomicin 0.007 | [4] 0.013 | [5] -0.018 | [6] 0.024 | saracatinib 0.077 | sotrastaurin 0.034 | Tubastatin A -0.038 | [7] 0.153 | defactinib -0.008 | rucaparib 0.006 | [8] -0.002 | encorafenib -0.023 | [9] 0.029
